Results: patent publication US10883083B2, “Tissue-engineered three-dimensional model for tumor analysis” (The Trustees of Columbia University in the City of New York, priority 2013, dated 2021)
“Also recorded” adds a separate entry of the source. For at least one compound, name, drawing or mass did not settle the structure.

Legend:
[1] = tested on: osteoclasts in tissue-engineered bone (hOB+hOC); test: BSP immunohistochemistry in tissue-engineered bone (hOB+hOC) after zoledronic acid treatment; format: cell-based, human; details: ZA 20 mM for 2 days
[2] = tested on: TE model of ES (SK-N-MC cell line); test: BSP immunohistochemistry in tissue-engineered model of Ewing's sarcoma after zoledronic acid treatment; format: cell-based, human; details: tumor model (SK-N-MC), ZA 20 μL or 2 days

## O=P(O)(O)C(O)(Cn1ccnc1)P(=O)(O)O [ZA, zoledronic acid]
[1]
  BSP distribution by immunohistochemistry: partial recovery of uniform BSP distribution; also recorded: large patches of strong BSP staining
[2]
  BSP detection by immunohistochemistry: BSP was detectable in the whole construct
